Assay results taken from the supplement of paper PMC6411743.
± gives the standard deviation of the averaged measurements. The list shows a part of the results, in another mix than the full data.

Protein sequences, listed by entry. Tags and fused reporters are not part of them. Lines headed by an entry give the natural chain unless they say otherwise; changes in a name come on top.
UniProt Q8IVH2: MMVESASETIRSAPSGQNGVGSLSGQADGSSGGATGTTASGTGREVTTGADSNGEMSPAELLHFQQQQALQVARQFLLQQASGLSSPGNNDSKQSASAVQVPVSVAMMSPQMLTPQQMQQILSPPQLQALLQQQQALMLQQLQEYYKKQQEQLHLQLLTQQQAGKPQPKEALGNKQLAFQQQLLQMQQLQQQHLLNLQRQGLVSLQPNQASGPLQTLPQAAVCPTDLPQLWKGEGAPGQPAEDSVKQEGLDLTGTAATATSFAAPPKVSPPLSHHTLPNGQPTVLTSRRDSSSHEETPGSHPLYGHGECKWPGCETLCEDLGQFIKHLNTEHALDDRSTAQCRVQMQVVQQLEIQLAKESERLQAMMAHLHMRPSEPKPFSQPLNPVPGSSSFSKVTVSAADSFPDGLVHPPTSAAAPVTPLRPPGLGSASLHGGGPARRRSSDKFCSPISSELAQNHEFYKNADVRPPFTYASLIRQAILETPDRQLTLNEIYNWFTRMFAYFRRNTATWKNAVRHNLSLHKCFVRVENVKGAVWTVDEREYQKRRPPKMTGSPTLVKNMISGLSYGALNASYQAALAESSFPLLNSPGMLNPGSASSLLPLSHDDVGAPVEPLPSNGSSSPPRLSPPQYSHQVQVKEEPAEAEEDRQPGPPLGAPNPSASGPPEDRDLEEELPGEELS
UniProt Q12857, whole entry: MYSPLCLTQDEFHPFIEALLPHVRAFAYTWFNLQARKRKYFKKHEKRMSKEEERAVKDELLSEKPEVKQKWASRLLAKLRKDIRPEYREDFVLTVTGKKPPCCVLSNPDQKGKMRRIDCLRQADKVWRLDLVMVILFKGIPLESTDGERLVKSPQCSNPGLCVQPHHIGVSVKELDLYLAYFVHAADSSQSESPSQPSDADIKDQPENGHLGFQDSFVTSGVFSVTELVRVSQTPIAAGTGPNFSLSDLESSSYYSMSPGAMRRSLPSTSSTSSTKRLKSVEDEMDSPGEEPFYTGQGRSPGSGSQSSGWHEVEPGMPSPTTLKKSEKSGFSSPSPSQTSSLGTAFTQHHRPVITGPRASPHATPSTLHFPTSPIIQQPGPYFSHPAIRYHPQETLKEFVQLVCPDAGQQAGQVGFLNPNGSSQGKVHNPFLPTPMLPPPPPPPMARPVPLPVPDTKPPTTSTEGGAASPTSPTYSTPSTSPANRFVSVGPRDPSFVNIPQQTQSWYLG
UniProt O76075: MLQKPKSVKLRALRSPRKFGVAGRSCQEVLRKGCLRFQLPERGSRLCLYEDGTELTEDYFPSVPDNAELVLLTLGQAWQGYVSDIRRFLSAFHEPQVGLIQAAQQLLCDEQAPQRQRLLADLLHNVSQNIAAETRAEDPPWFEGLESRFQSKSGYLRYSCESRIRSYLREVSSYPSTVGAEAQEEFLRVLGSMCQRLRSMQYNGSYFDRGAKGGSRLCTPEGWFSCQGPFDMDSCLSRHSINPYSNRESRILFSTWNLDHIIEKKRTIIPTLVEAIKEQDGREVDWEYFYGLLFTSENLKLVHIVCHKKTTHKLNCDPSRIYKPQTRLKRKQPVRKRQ
UniProt Q96D46: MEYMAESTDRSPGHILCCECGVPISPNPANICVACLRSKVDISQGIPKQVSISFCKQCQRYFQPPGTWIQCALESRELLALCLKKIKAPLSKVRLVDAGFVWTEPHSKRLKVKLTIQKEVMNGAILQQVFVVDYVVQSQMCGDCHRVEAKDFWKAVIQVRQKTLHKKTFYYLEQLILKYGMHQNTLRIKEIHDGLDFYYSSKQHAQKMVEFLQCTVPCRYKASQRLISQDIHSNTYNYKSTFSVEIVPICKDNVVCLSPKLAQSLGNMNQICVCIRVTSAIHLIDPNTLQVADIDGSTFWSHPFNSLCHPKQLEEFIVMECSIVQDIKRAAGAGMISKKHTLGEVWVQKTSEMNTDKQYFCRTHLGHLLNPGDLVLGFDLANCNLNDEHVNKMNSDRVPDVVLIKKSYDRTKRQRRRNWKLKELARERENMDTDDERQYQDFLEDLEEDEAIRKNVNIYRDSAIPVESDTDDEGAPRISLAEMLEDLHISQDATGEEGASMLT
UniProt Q32P44: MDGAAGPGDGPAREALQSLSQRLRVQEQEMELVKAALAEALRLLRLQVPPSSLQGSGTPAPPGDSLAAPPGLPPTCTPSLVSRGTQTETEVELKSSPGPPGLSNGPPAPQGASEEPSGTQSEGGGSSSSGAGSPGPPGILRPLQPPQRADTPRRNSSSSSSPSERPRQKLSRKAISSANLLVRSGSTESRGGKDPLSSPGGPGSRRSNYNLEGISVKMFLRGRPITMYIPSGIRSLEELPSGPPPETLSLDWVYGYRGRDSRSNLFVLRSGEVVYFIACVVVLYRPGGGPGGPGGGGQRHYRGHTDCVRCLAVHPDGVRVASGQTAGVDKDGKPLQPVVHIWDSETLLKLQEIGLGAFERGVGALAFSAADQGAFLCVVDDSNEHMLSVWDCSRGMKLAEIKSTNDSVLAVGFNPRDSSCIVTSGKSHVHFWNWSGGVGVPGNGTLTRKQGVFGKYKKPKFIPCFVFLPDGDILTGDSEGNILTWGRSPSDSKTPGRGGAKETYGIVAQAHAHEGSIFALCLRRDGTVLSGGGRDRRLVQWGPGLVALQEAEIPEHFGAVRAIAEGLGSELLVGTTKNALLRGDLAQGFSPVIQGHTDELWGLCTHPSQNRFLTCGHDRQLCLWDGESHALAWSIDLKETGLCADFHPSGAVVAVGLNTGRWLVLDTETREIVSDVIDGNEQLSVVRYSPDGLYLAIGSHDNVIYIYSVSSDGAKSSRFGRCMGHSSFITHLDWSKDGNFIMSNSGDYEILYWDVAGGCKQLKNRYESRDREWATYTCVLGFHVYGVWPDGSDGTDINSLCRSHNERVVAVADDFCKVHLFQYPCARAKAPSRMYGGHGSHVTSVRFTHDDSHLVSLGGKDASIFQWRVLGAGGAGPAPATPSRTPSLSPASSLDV
UniProt P18085: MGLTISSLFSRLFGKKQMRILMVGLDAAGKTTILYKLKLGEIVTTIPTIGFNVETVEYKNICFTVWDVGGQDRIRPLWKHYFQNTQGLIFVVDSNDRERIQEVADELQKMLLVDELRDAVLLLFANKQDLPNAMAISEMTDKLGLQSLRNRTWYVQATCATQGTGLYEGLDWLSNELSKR
UniProt Q96EQ0: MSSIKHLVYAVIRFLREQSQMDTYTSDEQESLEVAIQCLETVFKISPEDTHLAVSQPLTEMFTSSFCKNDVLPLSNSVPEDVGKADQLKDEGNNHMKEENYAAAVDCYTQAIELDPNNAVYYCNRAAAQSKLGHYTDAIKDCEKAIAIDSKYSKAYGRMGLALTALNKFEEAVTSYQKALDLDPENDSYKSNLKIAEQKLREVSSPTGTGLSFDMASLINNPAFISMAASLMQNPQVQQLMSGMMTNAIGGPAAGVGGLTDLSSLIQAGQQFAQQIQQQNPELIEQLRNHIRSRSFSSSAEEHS
UniProt Q8WV99: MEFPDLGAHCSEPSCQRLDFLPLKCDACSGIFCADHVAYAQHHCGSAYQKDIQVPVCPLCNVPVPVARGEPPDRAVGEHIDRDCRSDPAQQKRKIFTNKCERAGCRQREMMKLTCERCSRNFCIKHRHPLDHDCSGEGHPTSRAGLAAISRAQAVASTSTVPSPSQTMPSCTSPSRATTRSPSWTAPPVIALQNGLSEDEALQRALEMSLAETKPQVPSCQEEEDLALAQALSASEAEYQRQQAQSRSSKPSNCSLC
UniProt A2RUC4: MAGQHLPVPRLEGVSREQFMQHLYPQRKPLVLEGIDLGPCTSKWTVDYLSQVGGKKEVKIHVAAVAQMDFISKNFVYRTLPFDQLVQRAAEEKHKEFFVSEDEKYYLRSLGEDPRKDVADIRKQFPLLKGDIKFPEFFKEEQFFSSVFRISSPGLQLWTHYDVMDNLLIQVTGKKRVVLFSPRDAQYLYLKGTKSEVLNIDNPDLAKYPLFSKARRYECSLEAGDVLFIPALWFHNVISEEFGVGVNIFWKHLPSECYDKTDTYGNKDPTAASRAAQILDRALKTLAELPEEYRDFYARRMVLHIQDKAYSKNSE
UniProt Q8WUX1, whole entry: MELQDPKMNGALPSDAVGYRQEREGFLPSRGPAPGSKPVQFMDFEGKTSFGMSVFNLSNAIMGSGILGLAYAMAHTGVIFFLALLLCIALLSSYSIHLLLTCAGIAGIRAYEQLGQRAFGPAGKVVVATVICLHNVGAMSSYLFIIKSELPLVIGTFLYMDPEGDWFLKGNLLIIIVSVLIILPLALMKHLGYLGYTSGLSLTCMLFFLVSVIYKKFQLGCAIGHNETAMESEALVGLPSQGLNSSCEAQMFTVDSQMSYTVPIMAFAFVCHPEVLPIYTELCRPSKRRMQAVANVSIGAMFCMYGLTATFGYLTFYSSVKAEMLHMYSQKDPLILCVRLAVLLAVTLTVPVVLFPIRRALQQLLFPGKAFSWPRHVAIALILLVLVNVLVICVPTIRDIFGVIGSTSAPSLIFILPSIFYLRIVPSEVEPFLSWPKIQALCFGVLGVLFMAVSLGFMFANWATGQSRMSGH
UniProt P07910: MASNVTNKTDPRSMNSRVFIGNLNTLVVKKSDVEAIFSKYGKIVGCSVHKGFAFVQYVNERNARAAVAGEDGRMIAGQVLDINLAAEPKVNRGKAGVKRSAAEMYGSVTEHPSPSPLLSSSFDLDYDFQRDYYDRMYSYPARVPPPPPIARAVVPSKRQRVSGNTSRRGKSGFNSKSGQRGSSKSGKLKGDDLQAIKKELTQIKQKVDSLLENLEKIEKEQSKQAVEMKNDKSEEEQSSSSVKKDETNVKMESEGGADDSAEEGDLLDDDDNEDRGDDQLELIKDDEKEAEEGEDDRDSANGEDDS
UniProt P22415: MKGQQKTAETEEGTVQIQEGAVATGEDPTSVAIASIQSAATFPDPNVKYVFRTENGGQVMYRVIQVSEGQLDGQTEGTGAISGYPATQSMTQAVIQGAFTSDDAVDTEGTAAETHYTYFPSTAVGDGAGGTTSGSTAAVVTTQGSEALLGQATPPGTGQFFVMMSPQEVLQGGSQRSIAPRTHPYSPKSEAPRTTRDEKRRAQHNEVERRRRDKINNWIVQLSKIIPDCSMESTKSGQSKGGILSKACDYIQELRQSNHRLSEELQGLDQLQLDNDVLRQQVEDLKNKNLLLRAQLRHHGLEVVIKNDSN
UniProt Q9BUL8: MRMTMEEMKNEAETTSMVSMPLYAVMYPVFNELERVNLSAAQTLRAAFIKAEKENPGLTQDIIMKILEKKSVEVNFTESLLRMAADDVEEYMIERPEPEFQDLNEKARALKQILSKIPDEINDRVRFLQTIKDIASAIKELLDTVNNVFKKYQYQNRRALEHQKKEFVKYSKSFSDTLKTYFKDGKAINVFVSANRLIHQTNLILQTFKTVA
UniProt P68366, whole entry: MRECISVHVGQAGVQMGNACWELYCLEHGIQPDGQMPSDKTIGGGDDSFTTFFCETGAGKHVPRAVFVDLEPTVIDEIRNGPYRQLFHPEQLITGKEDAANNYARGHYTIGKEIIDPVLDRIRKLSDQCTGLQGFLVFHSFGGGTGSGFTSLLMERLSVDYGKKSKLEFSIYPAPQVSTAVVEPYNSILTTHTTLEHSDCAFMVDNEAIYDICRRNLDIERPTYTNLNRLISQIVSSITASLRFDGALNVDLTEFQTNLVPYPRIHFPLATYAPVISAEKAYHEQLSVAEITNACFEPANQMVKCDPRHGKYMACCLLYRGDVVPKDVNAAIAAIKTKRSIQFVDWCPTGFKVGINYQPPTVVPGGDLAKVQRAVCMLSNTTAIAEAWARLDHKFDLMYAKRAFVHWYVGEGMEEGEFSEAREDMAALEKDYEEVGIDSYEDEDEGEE
UniProt Q86XS8: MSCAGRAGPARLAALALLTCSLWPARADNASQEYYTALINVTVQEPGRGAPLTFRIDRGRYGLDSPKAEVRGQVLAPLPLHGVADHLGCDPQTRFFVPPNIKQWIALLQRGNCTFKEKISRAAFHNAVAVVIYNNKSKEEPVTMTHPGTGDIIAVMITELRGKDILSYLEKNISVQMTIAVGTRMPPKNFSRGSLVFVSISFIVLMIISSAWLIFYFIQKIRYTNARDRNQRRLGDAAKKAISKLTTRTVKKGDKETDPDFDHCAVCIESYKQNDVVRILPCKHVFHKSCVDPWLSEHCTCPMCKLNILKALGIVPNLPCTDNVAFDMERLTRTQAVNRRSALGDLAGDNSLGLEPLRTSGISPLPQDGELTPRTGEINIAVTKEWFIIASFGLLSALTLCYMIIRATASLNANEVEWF
UniProt Q92664: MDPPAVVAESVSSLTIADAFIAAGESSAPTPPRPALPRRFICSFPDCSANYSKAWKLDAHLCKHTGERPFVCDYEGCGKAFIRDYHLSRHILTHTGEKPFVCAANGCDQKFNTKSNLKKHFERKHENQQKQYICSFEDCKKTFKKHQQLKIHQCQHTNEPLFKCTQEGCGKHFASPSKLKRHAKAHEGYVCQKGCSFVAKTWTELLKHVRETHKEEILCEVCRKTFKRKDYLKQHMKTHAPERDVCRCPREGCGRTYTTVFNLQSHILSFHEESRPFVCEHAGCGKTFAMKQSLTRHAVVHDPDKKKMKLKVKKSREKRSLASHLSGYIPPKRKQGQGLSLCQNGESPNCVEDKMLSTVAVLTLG

Compound: Nc1ncnc2c1ncn2[C@@H]1O[C@H](COP(=O)(O)OP(=O)(O)NP(=O)(O)O)[C@@H](O)[C@H]1O [adenylyl imidodiphosphate]
Assay: NP40-soluble protein abundance relative to vehicle (solubility fold change) (ratio); higher = more soluble protein in presence of AMP-PNP
Summary of the method: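 Jurkat crude lysate prepared with a Dounce homogeniser was treated at eight concentrations spanning 0.1 to 10 mM, 10 min at room temperature then 3 min at 37 °C. Solubilisation with 0.8% NP40 and benzonase and ultracentrifugation preceded TMT labelling of the supernatant for LC-MS/MS. Fold change against the detergent-processed vehicle was determined per replicate from vsn-normalised intensities, across three independent experiments.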

Target | NP40-soluble protein abundance (concentration: 1mM) | NP40-soluble protein abundance (concentration: 2mM) | NP40-soluble protein abundance (concentration: 4mM) | NP40-soluble protein abundance (concentration: 6mM) | NP40-soluble protein abundance (concentration: 8mM) | NP40-soluble protein abundance (concentration: 10mM)
B0QXZ9 and related entries (UniProt Q9UGU5) | 1.03 ± 0.061 | 1.07 ± 0.048 | 1.06 ± 0.048 | 1.09 ± 0.064 | 1.1 ± 0.069 | 1.13 ± 0.065
A8K7Q2 and related entries (UniProt P11142) | 1.04 ± 0.037 | 1.06 ± 0.014 | 1.02 ± 0.036 | 1 ± 0.05 | 1 ± 0.034 | 1.01 ± 0.043
B7ZL14 and related entries (UniProt Q96RU3) | 1.031 ± 0.009 | 1.06 ± 0.062 | 1.01 ± 0.022 | 1.01 ± 0.026 | 0.991 ± 0.034 | 1 ± 0.046
C9J2Y9 and related entries (UniProt P30876) | 0.97 ± 0.011 | 0.887 ± 0.1 | 0.941 ± 0.042 | 0.933 ± 0.051 | 0.956 ± 0.065 | 0.919 ± 0.094
B7ZBM3 and related entries (UniProt Q8IVH2) | 0.961 ± 0.023 | 1.02 ± 0.043 | 0.9467 ± 0.0055 | 0.933 ± 0.034 | 0.929 ± 0.031 | 0.946 ± 0.027
B1AKN5 and related entries (UniProt Q12857) | 1.05 ± 0.066 | 1.04 ± 0.08 | 1.04 ± 0.078 | 1.07 ± 0.066 | 1.06 ± 0.097 | 1.1 ± 0.087
B4DZS0 and related entries (UniProt O76075) | 0.944 ± 0.021 | 0.924 ± 0.048 | 0.933 ± 0.016 | 0.948 ± 0.054 | 0.982 ± 0.018 | 0.959 ± 0.029
C9JA08 and related entries (UniProt Q96D46) | 0.969 ± 0.011 | 0.954 ± 0.018 | 0.953 ± 0.033 | 0.915 ± 0.019 | 0.911 ± 0.028 | 0.8882 ± 0.0053
A8MVZ6 and related entries (UniProt Q96G01) | 1.01 ± 0.014 | 1.03 ± 0.026 | 1.02 ± 0.036 | 0.958 ± 0.011 | 0.955 ± 0.018 | 0.955 ± 0.024
B7WPE2 and related entries (UniProt Q32P44) | 0.997 ± 0.046 | 0.987 ± 0.038 | 1.02 ± 0.053 | 1.02 ± 0.034 | 1.04 ± 0.021 | 1.06 ± 0.053
C9JAK5 and related entries (UniProt P18085) | 0.936 ± 0.062 | 0.871 ± 0.067 | 0.969 ± 0.034 | 1.01 ± 0.12 | 1.11 ± 0.09 | 0.98 ± 0.025
D6RFW1 and related entries (UniProt Q96EQ0) | 0.9975 ± 0.0065 | 1.07 ± 0.073 | 0.998 ± 0.063 | 0.993 ± 0.02 | 0.956 ± 0.014 | 0.955 ± 0.038
B4DEN4 and related entries (UniProt Q8WV99) | 0.991 ± 0.027 | 1.02 ± 0.063 | 1.01 ± 0.08 | 0.975 ± 0.026 | 0.985 ± 0.047 | 1 ± 0.081
D6RIF6 and related entries (UniProt Q9P270) | 1.01 ± 0.028 | 1.08 ± 0.068 | 1.085 ± 0.0081 | 1.07 ± 0.044 | 1.04 ± 0.054 | 1.09 ± 0.016
UniProt A2RUC4 | 0.9987 ± 0.0083 | 0.9827 ± 0.0017 | 0.969 ± 0.019 | 0.993 ± 0.013 | 0.9737 ± 0.0039 | 0.949 ± 0.015
C9IZL5 and related entries (UniProt O00189) | 0.976 ± 0.013 | 0.931 ± 0.041 | 0.993 ± 0.027 | 0.983 ± 0.02 | 1.03 ± 0.02 | 1.02 ± 0.043
B3KS98 and related entries (UniProt O15372) | 1.02 ± 0.028 | 1 ± 0.048 | 1.06 ± 0.072 | 1.15 ± 0.077 | 1.2 ± 0.073 | 1.27 ± 0.12
C9JHH7 and related entries (UniProt Q8WUX1) | 0.958 ± 0.025 | 0.9565 ± 0.0061 | 0.998 ± 0.033 | 1.05 ± 0.02 | 1.06 ± 0.058 | 1 ± 0.056
B2R5W2 and related entries (UniProt P07910) | 0.981 ± 0.1 | 1 ± 0.022 | 0.945 ± 0.14 | 0.947 ± 0.14 | 0.927 ± 0.093 | 0.953 ± 0.13
B1AQP1 and related entries (UniProt P22415) | 1.04 ± 0.031 | 1.13 ± 0.13 | 1.11 ± 0.065 | 1.09 ± 0.021 | 1.08 ± 0.017 | 1.14 ± 0.026
A8MTY9 and related entries (UniProt O14972) | 0.984 ± 0.021 | 0.941 ± 0.071 | 0.978 ± 0.03 | 0.987 ± 0.024 | 0.987 ± 0.061 | 0.956 ± 0.071
C9J5C3 and related entries (UniProt Q9BUL8) | 1.02 ± 0.045 | 1.01 ± 0.0049 | 1.02 ± 0.029 | 1.01 ± 0.039 | 1.01 ± 0.021 | 1 ± 0.046
D6RAN4 and related entries (UniProt P32969) | 1.02 ± 0.023 | 1.01 ± 0.079 | 0.974 ± 0.077 | 0.951 ± 0.063 | 0.885 ± 0.12 | 1.012 ± 0.01
C9K025 and related entries (UniProt P18077) | 1 ± 0.024 | 1.04 ± 0.034 | 1.01 ± 0.073 | 1.01 ± 0.015 | 0.906 ± 0.076 | 1.02 ± 0.061
C9JJQ8 and related entries (UniProt P68366) | 0.9628 ± 0.0011 | 1.04 ± 0.036 | 0.965 ± 0.023 | 0.955 ± 0.035 | 0.946 ± 0.037 | 0.9706 ± 0.0034
E5RI87 and related entries (UniProt Q86XS8) | 1.02 ± 0.011 | 1 ± 0.012 | 1.03 ± 0.035 | 1.05 ± 0.019 | 1.11 ± 0.034 | 1.03 ± 0.061
A2IDC6 and related entries (UniProt Q13084) | 0.961 ± 0.042 | 0.979 ± 0.081 | 0.916 ± 0.11 | 0.941 ± 0.12 | 0.91 ± 0.089 | 0.91 ± 0.085
D4Q8H0 and related entries (UniProt Q9NYL2+D4Q8H0) | 1.03 ± 0.031 | 1.02 ± 0.041 | 1.06 ± 0.012 | 1.01 ± 0.037 | 1.02 ± 0.036 | 1.03 ± 0.017
B7Z6D5 and related entries (UniProt Q96GQ7) | 1.03 ± 0.019 | 1.01 ± 0.034 | 1.06 ± 0.045 | 1.05 ± 0.026 | 1.08 ± 0.061 | 1.11 ± 0.05
B7ZBK4 and related entries (UniProt Q92664) | 1.01 ± 0.043 | 1.01 ± 0.022 | 1.02 ± 0.021 | 0.982 ± 0.038 | 1.02 ± 0.085 | 1.02 ± 0.039

Nothing new here: an excerpt of the list.
Target | NP40-soluble protein abundance (concentration: 1mM) | NP40-soluble protein abundance (concentration: 2mM) | NP40-soluble protein abundance (concentration: 4mM) | NP40-soluble protein abundance (concentration: 6mM) | NP40-soluble protein abundance (concentration: 8mM) | NP40-soluble protein abundance (concentration: 10mM)
A8K7Q2 and related entries (UniProt P11142) | 1.04 ± 0.037 | 1.06 ± 0.014 | 1.02 ± 0.036 | 1 ± 0.05 | 1 ± 0.034 | 1.01 ± 0.043
B7ZL14 and related entries (UniProt Q96RU3) | 1.031 ± 0.009 | 1.06 ± 0.062 | 1.01 ± 0.022 | 1.01 ± 0.026 | 0.991 ± 0.034 | 1 ± 0.046
C9J2Y9 and related entries (UniProt P30876) | 0.97 ± 0.011 | 0.887 ± 0.1 | 0.941 ± 0.042 | 0.933 ± 0.051 | 0.956 ± 0.065 | 0.919 ± 0.094
B7ZBM3 and related entries (UniProt Q8IVH2) | 0.961 ± 0.023 | 1.02 ± 0.043 | 0.9467 ± 0.0055 | 0.933 ± 0.034 | 0.929 ± 0.031 | 0.946 ± 0.027
B1AKN5 and related entries (UniProt Q12857) | 1.05 ± 0.066 | 1.04 ± 0.08 | 1.04 ± 0.078 | 1.07 ± 0.066 | 1.06 ± 0.097 | 1.1 ± 0.087
B4DZS0 and related entries (UniProt O76075) | 0.944 ± 0.021 | 0.924 ± 0.048 | 0.933 ± 0.016 | 0.948 ± 0.054 | 0.982 ± 0.018 | 0.959 ± 0.029
C9JA08 and related entries (UniProt Q96D46) | 0.969 ± 0.011 | 0.954 ± 0.018 | 0.953 ± 0.033 | 0.915 ± 0.019 | 0.911 ± 0.028 | 0.8882 ± 0.0053
